This is an account of results in article PMC7819943, “Rice protein-binding microarrays: a tool to detect cis-acting elements near promoter regions in rice”.

By UniProt entry, the sequences of proteins in these tests, tags left out.
UniProt Q0JBA9, entry or part of it: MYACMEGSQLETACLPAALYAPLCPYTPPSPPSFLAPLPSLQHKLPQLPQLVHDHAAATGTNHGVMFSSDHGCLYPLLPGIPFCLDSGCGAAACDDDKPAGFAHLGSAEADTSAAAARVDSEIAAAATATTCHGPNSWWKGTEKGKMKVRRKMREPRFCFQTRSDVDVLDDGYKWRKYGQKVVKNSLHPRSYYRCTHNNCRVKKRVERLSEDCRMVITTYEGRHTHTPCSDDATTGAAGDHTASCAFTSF

Some of the results follow.

For this test, the target named is OsWRKY34 (Oryza sativa, UniProt Q0JBA9 1-250). The test is described as follows: protein-binding microarray (RPBM); PBS, 2% BSA, 51.3 ng/ul salmon testes DNA, 50 uM zinc acetate, 200 nM TF, 25 C, 1 h; high values mean tight binding. The settings on record: protein: recombinant; tags: N-terminal polyhistidine and DsRed monomer fusion (pET32a); label: CyDye5-dUTP incorporated in the synthesized complementary strand; 3' TTTTT single-stranded linker to array surface; dsDNA, one strand shown. The procedure, abridged:
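Binding signal here means per-feature fluorescence intensity in arbitrary units. The values were read on an Axon 4000B scanner after a custom Agilent array, double-stranded by primer extension with Cy5-dUTP, was incubated with 200 nM protein at 25 °C for 1 h in PBS with 2% BSA, salmon testes DNA and 50 µM zinc acetate, then washed. The proteins were transcription factors with an N-terminal polyhistidine tag and DsRed, expressed in E. coli BL21-CodonPlus and purified on Ni–NTA.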
Take “TTTCGTACACTGGTTTGGTTTTCAGAAATGTTTTTCTTTACGGAGTCACCTAGTGCAG”: the binding signal was 8320 fluorescence intensity (a.u.).
Turning to “ATAGTGTTTATTCTAATATTCTTTATATATTGCTTCTTATCGGAGTCACCTAGTGCAG”, the binding signal is 8530 fluorescence intensity (a.u.).
Take “ATGACACTGTTTCGTTTCACCTTTAATTAAAGATTCCTATCGGAGTCACCTAGTGCAG”: the binding signal is 9330 fluorescence intensity (a.u.).
As for “TCACGAGTAGATGCCGTTTCAGTTTCACCATGCCTATTTACGGAGTCACCTAGTGCAG”, the binding signal is 11900 fluorescence intensity (a.u.).
As for “CAATAGGGTTTGCTCTTAATAACGTTCTTTTATCACTTTGCGGAGTCACCTAGTGCAG”, the binding signal was 8320 fluorescence intensity (a.u.).
For “GCCAATCCTTATCCTTAAACCCACCCATATAACCGCCTCTCGGAGTCACCTAGTGCAG” the value was 9780 fluorescence intensity (a.u.); for “GAGGGGTGGATGGAAAGCGGGTGTGAGTGAGGAAGATCCCCGGAGTCACCTAGTGCAG”, 9820 fluorescence intensity (a.u.).
For the sequence “CGCTATGTTAGTTTTGTTTCACGCTAGTGGCGAGACCAGACGGAGTCACCTAGTGCAG”, the binding signal is 8940 fluorescence intensity (a.u.).
With “AACCCGCGGATGTCAGCATCCACCGTTTCGCATCGCGGATCGGAGTCACCTAGTGCAG” the figure was 9520 fluorescence intensity (a.u.); with “CCATCATATTTGACTATTTTCAGGTGTTAGTTTGGACGATCGGAGTCACCTAGTGCAG”, 9210 fluorescence intensity (a.u.); with “CGAAAATCAGGGTTTGTTTGTCTTTTTTTTTCTGGAGGGACGGAGTCACCTAGTGCAG”, 8300 fluorescence intensity (a.u.).
On to “TCCTCCATCGCCGAGAAGTCTATTTGCTTTCCTCCTTTTACGGAGTCACCTAGTGCAG”, for which the binding signal was 9230 fluorescence intensity (a.u.).
For “GCACCCAACCCGTCCATTCCATATGCACGTATCGTATCATCGGAGTCACCTAGTGCAG”, the binding signal was 8630 fluorescence intensity (a.u.).
For “TCGTATCACTATTGGCATAATTTTGGGGTTTTTTTAATATCGGAGTCACCTAGTGCAG” the value was 13200 fluorescence intensity (a.u.); for “AACAAATGTACTTTCTCTGTTTCACAATGTAAGCCATTCTCGGAGTCACCTAGTGCAG”, 8340 fluorescence intensity (a.u.).
For “CCTTCCAGTTCACTCCACTCCGCTACTTTTTCCAACCGTCCGGAGTCACCTAGTGCAG”, the binding signal is 12000 fluorescence intensity (a.u.).
Take “TGGCCTTTTTTTGACGGTCATAATTTTTGTTTTCTAAACCCGGAGTCACCTAGTGCAG”: the binding signal is 13900 fluorescence intensity (a.u.).
“CAAACAATGGTCACGGCCTCATCTACATTTTCGTCCACCGCGGAGTCACCTAGTGCAG”: the binding signal was 10200 fluorescence intensity (a.u.).
For the sequence “TAATTTTACTCGATACTCTATGTACCCCTGAAATTTCGCTCGGAGTCACCTAGTGCAG”, the binding signal was 9560 fluorescence intensity (a.u.).
With “ATCTCGTTGACCGTGTCAAAGTCTAAAAATACCTATATTTCGGAGTCACCTAGTGCAG” the figure was 9390 fluorescence intensity (a.u.); with “GCTTCTATACATCTACAGGTTTCTGTAATTGATAGGTTAACGGAGTCACCTAGTGCAG”, 9030 fluorescence intensity (a.u.).
For “AGAACTGTTGGTTTTTATCGTGAGTCAAGTCTCACACTACCGGAGTCACCTAGTGCAG”, the binding signal was 8400 fluorescence intensity (a.u.).
For the sequence “TCGGAGGGCGAGGGGAGTATGCGGCGGAGGGAGGGAGGCACGGAGTCACCTAGTGCAG”, the binding signal is 9640 fluorescence intensity (a.u.).
On to “CTCCTGGTAACAACGTAGCCTTAGTTCACATTTTTATAATCGGAGTCACCTAGTGCAG”, for which the binding signal is 8720 fluorescence intensity (a.u.).
Take “CCATTGATCAATGTATACGTTTCCTATATGTGTTTATATTCGGAGTCACCTAGTGCAG”: the binding signal was 8550 fluorescence intensity (a.u.).
With “CTCACTACTCGTCGGTCGGCGCTACCCCGTGGCCACGCTTCGGAGTCACCTAGTGCAG”, the binding signal was 8210 fluorescence intensity (a.u.).
Take “GCGTCCCCGTGCATCCATCTACTCGGCCGGCGACCGCGCGCGGAGTCACCTAGTGCAG”: the binding signal was 10100 fluorescence intensity (a.u.).
In the case of “TATGTCACCTCGCCTTCGACTACGTACATACCACCCTGCGCGGAGTCACCTAGTGCAG”, the binding signal was 8300 fluorescence intensity (a.u.).
Turning to “ATCCGTGTTTGAGTTGGTTTTTAAGTTTGTTTGCTTTTGGCGGAGTCACCTAGTGCAG”, the binding signal was 10400 fluorescence intensity (a.u.).
For “ATAAACGTAAACCCGCGATATTTTCGCCACAAATATTTGTCGGAGTCACCTAGTGCAG”, the binding signal is 8890 fluorescence intensity (a.u.).
For “TGCGGGATGGCTGGTTGGTGTGCGTGTGCTTCGGTGCGTTCGGAGTCACCTAGTGCAG” the value was 10400 fluorescence intensity (a.u.); for “ACACAAGTTATGTTTTTTTTTTGCAATCTCCATGTAATTTCGGAGTCACCTAGTGCAG”, 9470 fluorescence intensity (a.u.).
In the case of “TTTGTTCATCTTTTTCGTTTAACTAATTTCTTCTCTTTTTCGGAGTCACCTAGTGCAG”, the binding signal is 10100 fluorescence intensity (a.u.).
With “ATTCTCTTTGTAACCATCATATATTTTCCTCCAGAACTTTCGGAGTCACCTAGTGCAG”, the binding signal was 10500 fluorescence intensity (a.u.).
With “CCCGGTTCTGTTCTTGGTTCTTGGAAAGCCGGTGGGGTGCCGGAGTCACCTAGTGCAG”, the binding signal was 8740 fluorescence intensity (a.u.).
In the case of “CACGAGAATCTGACCTGTTAACTCATATCTACTAATATCTCGGAGTCACCTAGTGCAG”, the binding signal was 9630 fluorescence intensity (a.u.).
In the case of “TTGCCATCGACATTATCTCTTTCTATAATATACCAGCGACCGGAGTCACCTAGTGCAG”, the binding signal is 8420 fluorescence intensity (a.u.).
For “GCTGCTCGACTACGTCTTCCTGCTCGTGGGTCTTTTCTTCCGGAGTCACCTAGTGCAG” the value was 14000 fluorescence intensity (a.u.); for “ACCTTTTTTTTTCGCCCGCAAATTTCATTAACACCACTTCCGGAGTCACCTAGTGCAG”, 8390 fluorescence intensity (a.u.).
For the sequence “TATATAGACTTGATATACCCTGTCTTTGCCCTTTTATTTCCGGAGTCACCTAGTGCAG”, the binding signal is 8150 fluorescence intensity (a.u.).
In the case of “CTAGCTAGCTAGCTAGCTTTTGCTCCTACATCTTCACTTCCGGAGTCACCTAGTGCAG”, the binding signal is 8580 fluorescence intensity (a.u.).
With “CTTTTTTGGGTGATTTTTTTTCACTTGGGGTGGGTGATAACGGAGTCACCTAGTGCAG”, the binding signal was 21800 fluorescence intensity (a.u.).
